Laboratory results as given in PMC10850148.

Experiments:
[1] = target: T1, AtSPL5 ZnF domain R121A (Arabidopsis thaliana) (UniProt Q9S758); test: condition: 660 μM ~ 700 μM titrated into 40 μM to 50 μM; ITC; MicroCal PEAQ-ITC, 16 °C, 20 mM Tris-HCl pH 7.5, 150 mM NaCl; 660-700 μM protein injected into 40-50 μM protein in the cell; SAP05 titrated to the transcription factor; one-site model; both purified
T1 sequence: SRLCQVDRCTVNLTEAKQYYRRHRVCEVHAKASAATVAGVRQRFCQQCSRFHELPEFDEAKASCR

[2] = target: T2, AtSPL5 ZnF domain Y78A (Arabidopsis thaliana) (UniProt Q9S758); test: as above
T2 sequence: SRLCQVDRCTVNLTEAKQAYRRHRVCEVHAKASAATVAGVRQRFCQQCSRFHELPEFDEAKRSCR

[3] = target: T3, AtSPL5 ZnF domain Y79A (Arabidopsis thaliana) (UniProt Q9S758); test: as above
T3 sequence: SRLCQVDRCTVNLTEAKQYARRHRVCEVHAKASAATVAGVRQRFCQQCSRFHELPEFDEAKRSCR

[4] = target: GST-tagged OY-M SAP05 (onion yellows phytoplasma (OY-M; Candidatus Phytoplasma asteris)); test: pull-down; about 200 μg purified GST-fused protein on GST beads, equal amount of target protein, 1 h, 4 °C; 20 mM Tris-HCl, 400 mM NaCl; glutathione elution, Coomassie staining; both purified

For “OY-M SAP05 (residues 33-135) (domain or fragment)”, the binding [1] was “no binding”, the binding [2] was “no binding” and the binding [3] was “no binding”.

B1: AtSPL5 ZnF domain R121A (domain or fragment, UniProt Q9S758 60-124)
chain: SRLCQVDRCTVNLTEAKQYYRRHRVCEVHAKASAATVAGVRQRFCQQCSRFHELPEFDEAKASCR
In the case of B1, the binding [4] is reported as “no binding”.

B2: AtSPL5 ZnF domain Y79A (domain or fragment, UniProt Q9S758 60-124)
chain: SRLCQVDRCTVNLTEAKQYARRHRVCEVHAKASAATVAGVRQRFCQQCSRFHELPEFDEAKRSCR
With B2 the binding [4] was “no binding”.

B3: AtSPL5 ZnF domain Y78A (domain or fragment, UniProt Q9S758 60-124)
chain: SRLCQVDRCTVNLTEAKQAYRRHRVCEVHAKASAATVAGVRQRFCQQCSRFHELPEFDEAKRSCR
For B3, the binding [4] was “no binding”.

B4: human RPN10 vWA domain 38HS39 > GA (domain or fragment, UniProt Q5VWC4 2-193)
chain: VLESTMVCVDNSEYMRNGDFLPTRLQAQQDAVNIVCGAKTRSNPENNVGLITLANDCEVLTTLTPDTGRILSKLHTVQPKGKITFCTGIRVAHLALKHRQGKNHKMRIIAFVGSPVEDNEKDLVKLAKRLKKEKVNVDIINFGEEEVNTEKLTAFVNTLNGKDGTGSHLVTVPPGPSLADALISSPILAGEG
In the case of B4, the binding [4] is reported as “no binding”.

B5: human RPN10 vWA domain 38HS39 > GA and T68L (domain or fragment, UniProt Q5VWC4 2-193)
chain: VLESTMVCVDNSEYMRNGDFLPTRLQAQQDAVNIVCGAKTRSNPENNVGLITLANDCEVLTTLTPDLGRILSKLHTVQPKGKITFCTGIRVAHLALKHRQGKNHKMRIIAFVGSPVEDNEKDLVKLAKRLKKEKVNVDIINFGEEEVNTEKLTAFVNTLNGKDGTGSHLVTVPPGPSLADALISSPILAGEG
B5 was tested, and the binding [4] was “no binding”.

These are yes or no findings as the source states them, for the method shown.
